Results as given in PubChem BioAssay AID493014 (National Center for Advancing Translational Sciences (NCATS), 2011).
The whole screen tested about 340,000 compounds, of which about 170 (0.05%) were called active. The inconclusive results got no clear call from the source; some entries with a clear call stand among them for comparison. Calls follow the shape of the dose curve; as a rule, active = well fitted inhibition curve with a large enough effect in the signal ratio, with a control signal flat (not every such curve was filed as active); inconclusive = small, poorly fitted or top-dose-only effect, or effect the other way, or a change in a side signal; inactive = flat fitted curve, though single readings scatter; the % refers to the signal ratio. Potencies beside an inconclusive call are fits to weak or partial responses and may not hold up.

Test: qHTS Assay to Find Inhibitors of Chronic Active B-Cell Receptor Signaling;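 as to activity change, negative = inhibition: plate controls were basal doxycycline-induced cells for no effect and cells given 10 µM MG132 for full effect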
Settings: ABC-DLBCL IkBa-CBG/CBR reporter, luminescence ratio (green luciferase fused to IkBa over red control in TMD8 lymphoma cells), 4 h; activity change, negative = inhibition: at 46.1 µM (top of the series)
Summary of the method: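 Doxycycline induced both beetle luciferases in TMD8 lymphoma cells; IKK-driven degradation limits the IkappaBalpha-fused green signal, while red luminescence normalises for cell number and nonspecific effects. Compounds tested up to 46 uM, 4 hrs.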
Potency is read from the fitted curve at half-maximal effect.

| Structure (SMILES) | activity change, negative = inhibition | Potency |
| --- | --- | --- |
| Cc1noc(C)c1CSc1nc2sc(C)c(C)c2c(=O)n1-c1ccccc1 | inconclusive: -1.45% | – |
| COc1ccc(C(=O)NCc2nnc(SCC(=O)NCCc3ccccc3)o2)cc1 | inactive: -12.3% | – |
| COc1ccccc1/C=C/C(=O)NCCc1ccccn1 | inconclusive: 220% | – |
| COc1cc(OC)cc(C(=O)NCCNC(=O)c2ccccc2)c1 | inactive: -2.76% | – |
| CC(C)c1ccc(C2=NN(c3ccccc3)C(=O)CC2)cc1 | inconclusive: 4.85% | – |
| Cc1ccc(-c2cc(C(=O)N/N=C\c3cnn(C)c3C)c3ccccc3n2)cc1C | inconclusive: -0.843% | – |
| CCOC(=O)N1CCN(C(=O)CS(=O)(=O)c2cn(Cc3cccc(F)c3)c3ccccc23)CC1 | – | inconclusive: 11.6 µM [rising, single point] |
| CC1CC2(CCCCC2)Nc2c1ccc1ccccc21 (stereo not given) | inconclusive: 10.4% | – |
| Cc1cccc(OCCCC(=O)NCC(=O)Nc2cccc(C)c2C)c1 | inconclusive: -22.2% | – |
| COc1ccc(NC(=O)CSc2nc3sc(C)cc3c(=O)n2C)c(OC)c1 | inconclusive: 1.58% | – |
| O=C(Cc1cccc2ccccc12)N/N=C/c1ccc(Sc2cccc3cccnc23)o1 | – | inconclusive: 16.4 µM [falling, single point] |
| Cc1cccc2cc(CNCc3ccccc3)c(Cl)nc12 | inconclusive: 18.6% | – |
| O=C(CCc1nnc(CCCc2ccccc2)o1)NCCN1CCOC1=O | inconclusive: 2.19% | – |
| Cc1ccc(NC(=O)C2C3/C=C\CCCCC32)cc1 (stereo not given) | inconclusive: 0.848% | – |
| c1ccc(C2=Nn3c(nnc3-c3ccncc3)SC2)cc1 | inconclusive: 1.29% | – |
| CCOC(=O)c1nn(-c2ccccc2)c(=O)c2c(N)sc(C)c12 | inconclusive: 18.5% | – |
| Cc1ccccc1NC(=O)c1cc(=O)c2ccccc2o1 | inconclusive: -17.7% | – |
| COc1cc(C(=O)N2CCN(C/C=C/c3ccccc3)CC2)cc(OC)c1OC | inactive: -1.02% | – |
| Cc1cccc(-n2ncc3c(NC(C)C)ncnc32)c1 | inconclusive: 2.98% | – |
| COc1ccc(CNC(=S)Nc2ccccc2)cc1Cl | inconclusive: -1.66% | – |
| Nc1c2ccccc2nc2ccccc12 | inconclusive: 26.6% | inconclusive: 20.6 µM [rising, partial curve, poor fit] |
| Cc1ccc(NC(=O)c2nc[nH]c2C(=O)N[C@H](C)c2ccccc2)cc1 | inconclusive: 7.81% | – |
| CC/C(=N\NS(=O)(=O)c1ccc(C)cc1)c1ccco1 | inactive: 4% | – |
| COCCn1c(=NC(=O)C2COc3ccccc3O2)sc2cc(S(N)(=O)=O)ccc21 (stereo not given) | inconclusive: 2.85% | – |
| CC(=O)c1cccc(N=Cc2c(O)c3ccccc3oc2=O)c1 | – | inconclusive: 7.94 µM [falling, partial curve] |
| Cc1cc(C)c2c(N)c(C(=O)N/N=C/c3cccnc3)sc2n1 | inactive: 6.36% | – |
| Cc1ccc(C)c(NS(=O)(=O)c2ccc(OCC(=O)NCc3ccco3)cc2)c1 | inconclusive: 10.6% | – |

Nothing new here: three of the compounds above.

| Structure (SMILES) | activity change, negative = inhibition | Potency |
| --- | --- | --- |
| Nc1c2ccccc2nc2ccccc12 | inconclusive: 26.6% | inconclusive: 20.6 µM [rising, partial curve, poor fit] |
| Cc1ccc(NC(=O)c2nc[nH]c2C(=O)N[C@H](C)c2ccccc2)cc1 | inconclusive: 7.81% | – |
| CC/C(=N\NS(=O)(=O)c1ccc(C)cc1)c1ccco1 | inactive: 4% | – |

Further records follow:

| Structure (SMILES) | activity change, negative = inhibition | Potency |
| --- | --- | --- |
| CCCCNC(=S)N(C)/N=C/c1ccc(F)cc1 | inconclusive: 17.3% | – |
| CC(=O)Nc1cccc(NC(=O)C2CCCN2C(=O)Nc2ccccc2C)c1 (stereo not given) | – | inconclusive: 25.1 µM [falling, single point] |
| CCOC(=O)C(CC)Sc1c(CC)cnc2c1c(=O)n(C)c(=O)n2C (stereo not given) | inactive: -5.45% | – |
| Cc1cc(=O)oc2c(C(=O)/C=C\c3cccs3)c(O)ccc12 | – | inconclusive: 18.4 µM [falling, partial curve] |
| O=C(O)CC(=O)Nc1ccccc1 | inconclusive: 10.3% | – |
| O=C(O)c1ccc2c(c1)C(=O)N([C@H](Cc1ccccc1)C(=O)O)C2=O | inconclusive: -27.8% | – |
| CCc1cccc(CC)c1NC(=O)C1SC(=Nc2ccccc2C)C(c2nc3ccccc3s2)=C1N (stereo not given) | inconclusive: -6.03% | – |
| O=C1Cc2ccccc2C(=O)N1Cc1ccccc1 | inconclusive: -8.71% | – |
| O=C(C1COc2ccccc2O1)N1CCN(c2ccccc2F)CC1 (stereo not given) | inconclusive: 1.17% | – |
| COc1ccc(CSCC(=O)Nc2ccc(S(=O)(=O)N3CCCCCC3)cc2)cc1 | inactive: -4.11% | – |
| CCCCNC(=S)N/N=C/c1sccc1C | inconclusive: 0.198% | – |
| O=C(CSc1nnc(-c2ccc(C(F)(F)F)cn2)o1)Nc1ccccc1Cl | – | inconclusive: 12.6 µM [falling, partial curve] |
| CCOC(=O)/C=C/C(=O)OCC(=O)Nc1c(Cl)cccc1Cl | inconclusive: 2.96% | – |
| CCn1nc(C)c(CNCc2cn[nH]c2-c2cc3ccccc3o2)c1C | inconclusive: 8.09% | – |
| CCOC(=O)N1CCC(NC(=O)c2cc(-c3ccc(F)cc3)[nH]c2C)CC1 | inconclusive: 2.15% | – |
| COCCOC(=O)c1[nH]c2c(c1C)C(=O)CC(c1ccco1)C2 (stereo not given) | inconclusive: -0.423% | – |
| Cc1ccccc1NS(=O)(=O)c1ccc(C(=O)NCC(c2ccccc2)N(C)C)cc1 (stereo not given) | – | inconclusive: 15.8 µM [falling, single point] |
| Cc1cc(C)n(-c2nc(C)c(C)c(=O)n2CC(=O)Nc2ccc(OC(F)(F)F)cc2)n1 | inconclusive: 6.08% | – |
| CCc1noc(C)c1C(=O)N1CCCC1 | inconclusive: 5.32% | – |
| Cc1nc(N2CCN(C(=O)c3ccco3)CC2)c2c3c(sc2n1)CCCC3 | inactive: 24.6% | – |
| C/C(CC(=O)Nc1ccc(N(C)C)cc1)=N\NC(=O)c1ccc(Cl)cc1Cl | inconclusive: 4.45% | – |
| COc1ccc(CN2CCC(C(=O)NCCc3ccc(OC)c(OC)c3)CC2)c(OC)c1 | inconclusive: 7.66% | – |
| Cc1cc(C)c(NC(=S)N(CCc2ccncc2)C(C)C)c(C)c1 | inconclusive: -57.3% | – |
| CC(C(=O)Nc1ccc(C(N)=O)cc1)N1C(=O)c2ccccc2S1(=O)=O (stereo not given) | inactive: -10.3% | – |
| O=C(NCCCN1CCOCC1)c1ccc(Cl)s1 | – | inconclusive: 10.3 µM [rising, partial curve, poor fit] |
| Cc1ccc(/C=N/NC(=O)Cc2cccn2C)cc1 | – | inconclusive: 12.6 µM [falling, partial curve, poor fit] |
| COC(=O)c1cc(C(=O)OC)cc(N2C(=O)CC(NNC(=O)c3ccccc3Cl)C2=O)c1 (stereo not given) | inconclusive: -3.17% | – |
